Experimental findings from doi:10.1101/2021.07.16.452612 are described below.

Amino acid sequences for entries named in this document (tags omitted). A change or cut given only in a name is not applied to a line headed by its entry. Residues count along the entry.
UniProt P26039: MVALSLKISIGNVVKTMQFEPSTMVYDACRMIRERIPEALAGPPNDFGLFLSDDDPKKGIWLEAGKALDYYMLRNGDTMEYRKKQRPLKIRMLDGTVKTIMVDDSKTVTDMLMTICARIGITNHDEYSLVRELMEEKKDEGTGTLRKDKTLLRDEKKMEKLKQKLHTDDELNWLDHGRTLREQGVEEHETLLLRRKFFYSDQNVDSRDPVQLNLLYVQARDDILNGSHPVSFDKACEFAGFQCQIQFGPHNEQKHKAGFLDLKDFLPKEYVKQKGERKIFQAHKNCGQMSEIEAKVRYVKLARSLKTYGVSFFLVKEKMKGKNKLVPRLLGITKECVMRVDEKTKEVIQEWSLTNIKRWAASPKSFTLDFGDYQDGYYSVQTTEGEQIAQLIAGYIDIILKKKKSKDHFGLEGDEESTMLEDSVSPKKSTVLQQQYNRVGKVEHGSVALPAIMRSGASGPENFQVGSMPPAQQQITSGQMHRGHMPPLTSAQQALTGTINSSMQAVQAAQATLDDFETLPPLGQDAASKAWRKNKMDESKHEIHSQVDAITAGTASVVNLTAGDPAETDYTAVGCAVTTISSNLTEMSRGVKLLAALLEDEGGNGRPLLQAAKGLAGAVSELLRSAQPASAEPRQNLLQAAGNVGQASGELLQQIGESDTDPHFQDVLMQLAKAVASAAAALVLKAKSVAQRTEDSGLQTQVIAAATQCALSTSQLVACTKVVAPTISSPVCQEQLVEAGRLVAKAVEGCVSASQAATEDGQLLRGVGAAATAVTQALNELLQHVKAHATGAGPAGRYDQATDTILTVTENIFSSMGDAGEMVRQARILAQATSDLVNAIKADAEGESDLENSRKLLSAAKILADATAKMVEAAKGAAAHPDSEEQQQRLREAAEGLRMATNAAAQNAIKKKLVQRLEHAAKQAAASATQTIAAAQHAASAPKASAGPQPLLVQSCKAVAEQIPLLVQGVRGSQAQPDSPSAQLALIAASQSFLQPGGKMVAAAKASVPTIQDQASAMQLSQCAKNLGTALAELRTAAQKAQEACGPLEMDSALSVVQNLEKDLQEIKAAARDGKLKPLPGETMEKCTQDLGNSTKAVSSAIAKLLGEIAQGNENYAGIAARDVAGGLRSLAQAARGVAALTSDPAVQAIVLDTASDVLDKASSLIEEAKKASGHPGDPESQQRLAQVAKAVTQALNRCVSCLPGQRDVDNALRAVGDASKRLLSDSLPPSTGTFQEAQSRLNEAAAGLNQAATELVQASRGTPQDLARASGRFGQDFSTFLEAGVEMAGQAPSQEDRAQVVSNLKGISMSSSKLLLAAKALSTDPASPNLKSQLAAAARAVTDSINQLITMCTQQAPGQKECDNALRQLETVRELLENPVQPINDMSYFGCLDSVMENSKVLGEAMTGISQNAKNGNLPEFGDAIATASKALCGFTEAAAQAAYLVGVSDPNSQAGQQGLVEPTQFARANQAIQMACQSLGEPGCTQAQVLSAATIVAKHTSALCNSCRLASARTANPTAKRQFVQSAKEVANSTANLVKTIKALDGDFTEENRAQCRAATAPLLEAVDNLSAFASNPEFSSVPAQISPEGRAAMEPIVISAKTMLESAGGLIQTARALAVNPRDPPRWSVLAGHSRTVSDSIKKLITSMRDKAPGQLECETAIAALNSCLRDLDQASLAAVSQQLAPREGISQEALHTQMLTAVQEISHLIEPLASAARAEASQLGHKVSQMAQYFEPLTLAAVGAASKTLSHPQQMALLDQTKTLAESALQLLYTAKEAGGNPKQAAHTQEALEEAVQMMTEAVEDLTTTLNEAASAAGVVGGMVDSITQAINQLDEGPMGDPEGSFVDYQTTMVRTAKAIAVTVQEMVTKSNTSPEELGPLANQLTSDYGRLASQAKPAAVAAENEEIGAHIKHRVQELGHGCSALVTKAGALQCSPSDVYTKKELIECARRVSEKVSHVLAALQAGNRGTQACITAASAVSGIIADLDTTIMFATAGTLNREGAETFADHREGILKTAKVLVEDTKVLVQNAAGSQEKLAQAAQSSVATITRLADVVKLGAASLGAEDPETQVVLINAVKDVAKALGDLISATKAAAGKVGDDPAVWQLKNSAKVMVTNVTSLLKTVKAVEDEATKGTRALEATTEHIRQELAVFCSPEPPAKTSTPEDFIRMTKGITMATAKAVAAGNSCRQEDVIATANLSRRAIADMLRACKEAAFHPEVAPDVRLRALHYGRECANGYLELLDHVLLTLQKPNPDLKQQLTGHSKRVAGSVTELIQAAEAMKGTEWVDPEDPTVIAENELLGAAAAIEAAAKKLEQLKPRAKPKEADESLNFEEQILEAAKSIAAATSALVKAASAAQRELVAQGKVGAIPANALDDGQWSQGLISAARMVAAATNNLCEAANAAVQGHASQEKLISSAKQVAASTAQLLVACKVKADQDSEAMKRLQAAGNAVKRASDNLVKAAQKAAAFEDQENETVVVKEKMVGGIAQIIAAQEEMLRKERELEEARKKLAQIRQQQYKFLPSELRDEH
UniProt P49023: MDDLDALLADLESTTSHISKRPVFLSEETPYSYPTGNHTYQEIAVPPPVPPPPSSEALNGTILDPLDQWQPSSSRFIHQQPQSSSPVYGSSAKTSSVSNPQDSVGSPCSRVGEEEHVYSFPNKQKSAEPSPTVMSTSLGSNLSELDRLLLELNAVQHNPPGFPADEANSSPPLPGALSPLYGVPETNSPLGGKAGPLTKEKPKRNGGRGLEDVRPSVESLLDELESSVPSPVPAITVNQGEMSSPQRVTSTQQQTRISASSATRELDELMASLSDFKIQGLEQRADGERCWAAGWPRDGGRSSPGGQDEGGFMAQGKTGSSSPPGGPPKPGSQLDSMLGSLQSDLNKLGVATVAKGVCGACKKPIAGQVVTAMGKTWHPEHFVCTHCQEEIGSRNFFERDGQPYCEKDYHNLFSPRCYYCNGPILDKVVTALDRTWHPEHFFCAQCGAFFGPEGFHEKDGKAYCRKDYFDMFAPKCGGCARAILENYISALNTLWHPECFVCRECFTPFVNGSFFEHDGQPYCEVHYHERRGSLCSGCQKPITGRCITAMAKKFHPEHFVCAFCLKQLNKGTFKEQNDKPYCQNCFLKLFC
UniProt Q9Y4G6: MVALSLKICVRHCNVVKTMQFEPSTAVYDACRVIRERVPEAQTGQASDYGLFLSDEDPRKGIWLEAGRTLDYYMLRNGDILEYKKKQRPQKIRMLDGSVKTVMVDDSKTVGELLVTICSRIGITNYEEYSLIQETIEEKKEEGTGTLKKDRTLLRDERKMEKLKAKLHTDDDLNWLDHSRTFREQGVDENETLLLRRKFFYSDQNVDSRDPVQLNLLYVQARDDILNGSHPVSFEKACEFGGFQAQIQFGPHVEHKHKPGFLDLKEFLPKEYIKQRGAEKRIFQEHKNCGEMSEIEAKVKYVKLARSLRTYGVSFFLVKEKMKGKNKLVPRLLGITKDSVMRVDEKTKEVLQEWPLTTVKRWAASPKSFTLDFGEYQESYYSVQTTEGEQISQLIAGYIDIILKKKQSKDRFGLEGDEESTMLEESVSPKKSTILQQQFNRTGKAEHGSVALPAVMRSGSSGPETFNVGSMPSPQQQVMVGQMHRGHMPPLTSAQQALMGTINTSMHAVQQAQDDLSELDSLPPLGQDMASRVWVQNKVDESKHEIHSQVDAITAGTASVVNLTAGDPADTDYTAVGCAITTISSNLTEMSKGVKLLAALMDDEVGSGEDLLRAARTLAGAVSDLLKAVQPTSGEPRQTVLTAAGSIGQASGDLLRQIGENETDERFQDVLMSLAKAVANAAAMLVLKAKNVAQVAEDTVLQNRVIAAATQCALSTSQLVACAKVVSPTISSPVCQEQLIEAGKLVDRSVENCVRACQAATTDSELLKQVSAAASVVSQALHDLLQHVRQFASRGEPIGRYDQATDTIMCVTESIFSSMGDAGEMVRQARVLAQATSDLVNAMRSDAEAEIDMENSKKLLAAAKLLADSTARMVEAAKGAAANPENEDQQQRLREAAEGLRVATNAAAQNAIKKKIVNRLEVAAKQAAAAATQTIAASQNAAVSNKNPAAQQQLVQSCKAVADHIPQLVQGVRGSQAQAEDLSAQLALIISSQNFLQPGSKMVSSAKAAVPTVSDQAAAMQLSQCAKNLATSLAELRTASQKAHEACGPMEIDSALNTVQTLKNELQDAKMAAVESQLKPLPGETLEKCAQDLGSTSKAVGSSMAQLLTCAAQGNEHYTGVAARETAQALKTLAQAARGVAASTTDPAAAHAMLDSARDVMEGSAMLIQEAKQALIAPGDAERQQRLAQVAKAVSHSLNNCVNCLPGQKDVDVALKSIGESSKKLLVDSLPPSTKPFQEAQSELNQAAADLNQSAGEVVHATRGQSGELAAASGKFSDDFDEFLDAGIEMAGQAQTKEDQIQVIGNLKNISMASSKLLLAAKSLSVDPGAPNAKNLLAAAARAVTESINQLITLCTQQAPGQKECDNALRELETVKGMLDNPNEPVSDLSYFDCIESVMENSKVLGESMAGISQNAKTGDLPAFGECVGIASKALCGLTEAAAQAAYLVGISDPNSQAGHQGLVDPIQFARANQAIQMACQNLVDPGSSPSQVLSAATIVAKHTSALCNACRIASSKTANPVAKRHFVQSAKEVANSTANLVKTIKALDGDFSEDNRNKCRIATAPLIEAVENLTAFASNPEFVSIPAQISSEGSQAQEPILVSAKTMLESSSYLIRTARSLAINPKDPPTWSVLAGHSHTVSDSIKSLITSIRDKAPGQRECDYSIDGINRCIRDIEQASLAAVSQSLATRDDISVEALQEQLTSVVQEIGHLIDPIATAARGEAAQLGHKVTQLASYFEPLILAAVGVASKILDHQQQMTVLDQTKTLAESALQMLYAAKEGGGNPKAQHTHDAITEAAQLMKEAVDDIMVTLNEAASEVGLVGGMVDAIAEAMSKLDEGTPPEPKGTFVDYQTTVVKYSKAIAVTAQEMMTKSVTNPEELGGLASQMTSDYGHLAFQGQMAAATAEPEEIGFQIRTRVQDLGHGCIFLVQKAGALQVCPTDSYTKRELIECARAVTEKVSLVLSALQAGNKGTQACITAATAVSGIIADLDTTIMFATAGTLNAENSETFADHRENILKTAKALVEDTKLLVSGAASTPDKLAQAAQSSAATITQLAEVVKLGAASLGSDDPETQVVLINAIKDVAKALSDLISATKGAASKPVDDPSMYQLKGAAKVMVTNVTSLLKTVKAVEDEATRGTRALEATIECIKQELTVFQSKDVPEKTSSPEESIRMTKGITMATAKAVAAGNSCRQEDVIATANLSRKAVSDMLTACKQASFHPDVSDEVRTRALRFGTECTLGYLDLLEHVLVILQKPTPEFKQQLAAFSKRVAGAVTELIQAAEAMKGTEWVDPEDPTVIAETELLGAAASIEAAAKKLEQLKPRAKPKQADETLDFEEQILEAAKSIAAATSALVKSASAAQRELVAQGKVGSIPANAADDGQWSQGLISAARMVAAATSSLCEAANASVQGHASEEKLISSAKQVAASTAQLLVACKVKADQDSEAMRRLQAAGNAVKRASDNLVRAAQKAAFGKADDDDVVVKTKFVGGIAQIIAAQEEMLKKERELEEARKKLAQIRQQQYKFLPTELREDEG
UniProt P09055, residues 21-798: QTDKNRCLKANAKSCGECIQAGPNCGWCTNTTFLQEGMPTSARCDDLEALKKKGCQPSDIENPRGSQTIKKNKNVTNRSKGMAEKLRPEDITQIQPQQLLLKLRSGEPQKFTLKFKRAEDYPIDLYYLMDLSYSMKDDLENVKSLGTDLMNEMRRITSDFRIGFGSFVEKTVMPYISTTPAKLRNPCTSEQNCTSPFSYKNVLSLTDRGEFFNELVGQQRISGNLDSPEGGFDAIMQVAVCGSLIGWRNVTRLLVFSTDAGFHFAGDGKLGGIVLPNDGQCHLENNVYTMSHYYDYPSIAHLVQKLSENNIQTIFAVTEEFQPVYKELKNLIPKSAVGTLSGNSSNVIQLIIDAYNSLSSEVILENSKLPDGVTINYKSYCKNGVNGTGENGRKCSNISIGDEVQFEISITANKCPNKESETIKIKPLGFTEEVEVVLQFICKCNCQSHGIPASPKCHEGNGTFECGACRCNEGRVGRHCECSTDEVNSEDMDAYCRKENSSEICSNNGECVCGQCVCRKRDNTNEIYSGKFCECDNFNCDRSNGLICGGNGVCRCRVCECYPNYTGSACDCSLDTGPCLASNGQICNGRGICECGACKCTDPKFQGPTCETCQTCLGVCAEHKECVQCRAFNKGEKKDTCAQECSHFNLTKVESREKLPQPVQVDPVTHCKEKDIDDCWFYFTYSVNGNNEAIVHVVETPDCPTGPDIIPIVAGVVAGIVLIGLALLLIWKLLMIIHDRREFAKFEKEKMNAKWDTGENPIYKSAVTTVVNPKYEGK

One experiment concerns the target mCh-tensin1-cBAK (human) (UniProt Q9HBL0). In words: mitochondrial targeting and recruitment assay.
Experiment [1] addresses mCh-tensin3-FL-cBAK (human) (UniProt Q68CZ2). In words: mitochondrial targeting and recruitment assay.

No constants are given. Whether binding was seen depends on the method and setting. A result given as binding can be weak or reduced; the word gives no strength. For some assays here: Where a sequence is shown, tags or fusion partners need not be part of it.

As for “endogenous vinculin (from UniProt Q64727 1-1066)”, the binding result in the experiment with mCh-tensin1-cBAK (human) is listed as “binds”.

For the molecule GFP-talin1 (from UniProt P26039 1-2541), the binding result in the experiment with mCh-tensin1-cBAK (human) was “binds”.

As to “GFP-paxillin (from UniProt P49023 1-591)”, the binding result with mCh-tensin1-cBAK (human) was “binds”.

Take “endogenous paxillin (from UniProt Q8VI36 1-591)”: the binding result in the experiment with mCh-tensin1-cBAK (human) is listed as “binds”.

As to GFP-FAK (from UniProt Q05397 1-1052), in the experiment with mCh-tensin1-cBAK (human), the binding result is “binds”.

For the molecule GFP-talin2 (from UniProt Q9Y4G6 1-2542), the binding result with mCh-tensin1-cBAK (human) was “binds”.

Turning to “active β1 integrin (9EG7 staining), endogenous (from UniProt P09055 21-798) (receptor)”, the binding entry with mCh-tensin1-cBAK (human) is given as “no binding”.

As to GFP-talinΔR1-R10 (from UniProt P26039), the binding entry in experiment [1] was “binds”.

As for “endogenous talin1 (from UniProt P26039 1-2541)”, in the experiment with mCh-tensin1-cBAK (human), the binding entry is “binds”.

Regarding GFP-ILK (from UniProt Q13418 1-452), the binding entry in the experiment with mCh-tensin1-cBAK (human) is listed as “binds”.

B1: GFP-KANK2 (protein, UniProt Q63ZY3 1-851)
chain: MAQVLHVPAPFPGTPGPASPPAFPAKDPDPPYSVETPYGYRLDLDFLKYVDDIEKGHTLRRVAVQRRPRLSSLPRGPGSWWTSTESLCSNASGDSRHSAYSYCGRGFYPQYGALETRGGFNPRVERTLLDARRRLEDQAATPTGLGSLTPSAAGSTASLVGVGLPPPTPRSSGLSTPVPPSAGHLAHVREQMAGALRKLRQLEEQVKLIPVLQVKLSVLQEEKRQLTVQLKSQKFLGHPTAGRGRSELCLDLPDPPEDPVALETRSVGTWVRERDLGMPDGEAALAAKVAVLETQLKKALQELQAAQARQADPQPQAWPPPDSPVRVDTVRVVEGPREVEVVASTAAGAPAQRAQSLEPYGTGLRALAMPGRPESPPVFRSQEVVETMCPVPAAATSNVHMVKKISITERSCDGAAGLPEVPAESSSSPPGSEVASLTQPEKSTGRVPTQEPTHREPTRQAASQESEEAGGTGGPPAGVRSIMKRKEEVADPTAHRRSLQFVGVNGGYESSSEDSSTAENISDNDSTENEAPEPRERVPSVAEAPQLRPAGTAAAKTSRQECQLSRESQHIPTAEGASGSNTEEEIRMELSPDLISACLALEKYLDNPNALTERELKVAYTTVLQEWLRLACRSDAHPELVRRHLVTFRAMSARLLDYVVNIADSNGNTALHYSVSHANFPVVQQLLDSGVCKVDKQNRAGYSPIMLTALATLKTQDDIETVLQLFRLGNINAKASQAGQTALMLAVSHGRVDVVKALLACEADVNVQDDDGSTALMCACEHGHKEIAGLLLAVPSCDISLTDRDGSTALMVALDAGQSEIASMLYSRMNIKCSFAPMSDDESPTSSSAEE
Turning to B1, the binding result in the experiment with mCh-tensin1-cBAK (human) is given as “binds”.
